This is an account of results in the supplement of paper PMC3334620.

Over roughly 33,000 sequences, “E-score (-0.5 to 0.5)” has its median near -0.0034; the highest 2% begin near 0.25. Some of the results follow.

This test has as its target T1, Yap3 (UniProt P38749).
T1 sequence: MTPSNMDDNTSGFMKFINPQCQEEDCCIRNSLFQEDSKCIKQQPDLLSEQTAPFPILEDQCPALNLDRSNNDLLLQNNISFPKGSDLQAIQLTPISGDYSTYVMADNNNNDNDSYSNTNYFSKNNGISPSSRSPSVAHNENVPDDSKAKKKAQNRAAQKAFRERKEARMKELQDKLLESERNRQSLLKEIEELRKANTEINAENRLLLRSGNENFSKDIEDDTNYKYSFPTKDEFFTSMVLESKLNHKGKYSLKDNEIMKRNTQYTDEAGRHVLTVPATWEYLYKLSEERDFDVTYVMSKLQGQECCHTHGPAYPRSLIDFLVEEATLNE
Description: PBM E-score (8-mer binding enrichment) (E-score (-0.5 to 0.5)); higher = stronger / more preferred TF binding. The settings on record: protein concentration: 100 nM; construct: GST-full length. The procedure, abridged: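 Bound GST-tagged yeast transcription factors, applied at about 100-200 nM to double-stranded universal all-10-mer Agilent arrays, were detected with fluorescent anti-GST. Scans were normalised with masliner. A modified Wilcoxon-Mann-Whitney statistic, the E-score, was assigned to each ungapped eight-base word pooled with its reverse complement by the Universal PBM Analysis Suite.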
For ATCCACGA, the “PBM E-score” value came to 0.0482.

As to CAAGCAGC, the “PBM E-score” value was -0.117.

For the sequence AGGTTCTA, the “PBM E-score” value was -0.0563.

With CATTACTA, the “PBM E-score” value was 0.292.

Turning to GAGGGGGC, the “PBM E-score” value was -0.408.

Regarding ATACGCCC, the “PBM E-score” value is -0.184.

Turning to CTGACACA, the “PBM E-score” value was 0.0323.

With CACTGTAA, the “PBM E-score” value came out at 0.206.

With ATGTTCAG, the “PBM E-score” value amounted to 0.0021.

On to ACAAGAGT, for which the “PBM E-score” value amounted to 0.0549.

Consider ATAAGAAG, for which the “PBM E-score” value was 0.0494.

For the sequence AATAAAGC, the “PBM E-score” value amounted to 0.133.

Turning to GAAATCAA, the “PBM E-score” value was 0.0981.

In the case of CAGTTCGC, the “PBM E-score” value is -0.0145.

With CTTGGCGC, the “PBM E-score” value was -0.0848.

On to CGATAGAA, for which the “PBM E-score” value is 0.0788.

As for CATATTGG, the “PBM E-score” value was 0.134.

As for ACAGAGGA, the “PBM E-score” value is -0.00698.

Consider ATGAGACG, for which the “PBM E-score” value is -0.0735.

With TGAGCCCA, the “PBM E-score” value was -0.107.

Consider ACGGATCG, for which the “PBM E-score” value is -0.106.

As to AGACCCCA, the “PBM E-score” value was -0.0654.

For ACCGGAGG, the “PBM E-score” value is -0.265.

Turning to GATCAGCA, the “PBM E-score” value was determined as 0.0532.

As for TAAATCAA, the “PBM E-score” value turned out to be 0.219.

AGGATCGG: the “PBM E-score” value is -0.156.

Regarding AGACCCGC, the “PBM E-score” value is -0.189.

With CTGAGATC, the “PBM E-score” value is -0.172.

For the sequence AGAAGGAC, the “PBM E-score” value is -0.0822.

As for ATCTGAGC, the “PBM E-score” value amounted to 0.0191.

For GAAAACTC, the “PBM E-score” value is -0.052.

Consider ATTCGTTC, for which the “PBM E-score” value is 0.27.

Regarding CATTGCTC, the “PBM E-score” value is -0.0314.

GAAAATAA: the “PBM E-score” value was 0.224.

Take GAGACCCA: the “PBM E-score” value was found to be 0.0371.

As for ACCAGGTG, the “PBM E-score” value is -0.245.

In the case of AACTAAGC, the “PBM E-score” value was 0.148.

In the case of GTTCATTA, the “PBM E-score” value came to 0.259.

Regarding GTTTAGAA, the “PBM E-score” value turned out to be 0.089.

On to GGCCCGCC, for which the “PBM E-score” value is -0.381.

Regarding CAGTCTTA, the “PBM E-score” value is 0.0462.

For ATTTCGCG, the “PBM E-score” value worked out at 0.16.

Regarding GGAAACTA, the “PBM E-score” value is -0.061.

AACTCTGC: the “PBM E-score” value was -0.184.

For AAGTTGGG, the “PBM E-score” value was -0.0957.

ACGACGGA: the “PBM E-score” value is 0.119.

Take CAGGGAGA: the “PBM E-score” value was -0.287.

On to CTCCGAGA, for which the “PBM E-score” value is -0.0208.

TACCTCTA: the “PBM E-score” value was determined as 0.0153.

Regarding TCATGCGA, the “PBM E-score” value came to 0.0851.

Turning to CGAGGCAG, the “PBM E-score” value is -0.131.

As for ATTTCAAC, the “PBM E-score” value was 0.124.

As to CCTATGAC, the “PBM E-score” value is -0.0848.

CGTGGTCC: the “PBM E-score” value is -0.212.

As to CGATGTCC, the “PBM E-score” value was -0.0116.

For AAAATGCT, the “PBM E-score” value turned out to be 0.188.

With ATCAGTGA, the “PBM E-score” value is -0.149.

In the case of GGAGTTAA, the “PBM E-score” value was found to be 0.0511.

Consider AAGTCGAG, for which the “PBM E-score” value was -0.158.

For the sequence CTGGCGAA, the “PBM E-score” value is -0.0722.

Take CCACAGGG: the “PBM E-score” value was -0.278.

On to AGTTGAGC, for which the “PBM E-score” value was 0.0258.

In the case of AGAAGGTA, the “PBM E-score” value stood at 0.28.

ATACGCAG: the “PBM E-score” value was -0.0663.

Turning to CACGCCCC, the “PBM E-score” value is -0.132.

Consider ATCACTCC, for which the “PBM E-score” value is -0.119.

As to ATTCCCCC, the “PBM E-score” value is -0.211.

For ATCTCGTG, the “PBM E-score” value is -0.0821.

In the case of TGGTTTAA, the “PBM E-score” value was 0.0814.

Regarding CAATCTTC, the “PBM E-score” value is 0.126.

GAGCTGGA: the “PBM E-score” value was -0.219.

Take GCCAACAC: the “PBM E-score” value is -0.045.

Turning to GTGCAGTA, the “PBM E-score” value was -0.0443.

As for CCCGTACA, the “PBM E-score” value was -0.159.

As for ACGCTTCT, the “PBM E-score” value was 0.00329.

In the case of GTACCAGA, the “PBM E-score” value was -0.0251.

On to CAAATATC, for which the “PBM E-score” value amounted to 0.285.

On to CGACTGAC, for which the “PBM E-score” value was -0.0829.

Consider GATAGCTA, for which the “PBM E-score” value was -0.107.

Consider AATGCCCC, for which the “PBM E-score” value was -0.109.

ACACTAGT: the “PBM E-score” value worked out at 0.0325.

In the case of CGATTCGA, the “PBM E-score” value worked out at 0.208.

Take CCGCGCAA: the “PBM E-score” value is -0.117.

As to AACAATGT, the “PBM E-score” value was 0.00412.

For the sequence ATGGCTTG, the “PBM E-score” value is -0.143.

In the case of ATTTACTG, the “PBM E-score” value was 0.205.
